Assay results reported in publication PMC5321741, “Arylmethylamino steroids as antiparasitic agents” (Nature Communications, 2017).

tested on: haem (FeIIIPPIX, π-π dimer); assay: spectrophotometric titration of haematin π-π dimer; format: binding; settings: 0.2 M HEPES pH 7.5, 25.0 °C

| SMILES | log β (FeIIIPPIX)2.substrate | log KFeIIIPPIX.STS948 |
| --- | --- | --- |
| COc1ccc2c(c1)CCC1C2CC[C@@]2(C)C1CC[C@H]2N (stereo partly drawn) [1a] | 12.0 ± 0.2 |  |
| COc1ccc2c(c1)CCC1C2CCC2(C)C(NCc3ccccc3OC)CCC12 (stereo not drawn) [1i] | 12.0 ± 0.2 |  |
| COc1ccc2c(c1)CCC1C2CC[C@@]2(C)C1CC[C@H]2NCc1cc2ccccc2cc1O (stereo partly drawn) [1o] | 12.3 ± 0.2 |  |
| COc1ccc2c(c1)CCC1C2CC[C@@]2(C)C1CC[C@@H]2N(CCCn1ccnc1)CCc1ccccn1 (stereo partly drawn) [STS 948] |  | 6.09 ± 0.06 |
| CCN(CC)CCCC(C)Nc1ccnc2cc(Cl)ccc12 (stereo not drawn) [chloroquine] | 13.17 ± 0.07 |  |
| c1ccncc1 [pyr, pyridine, reference compound] | 2.25 ± 0.05 |  |
